# Measurements reported in PubChem BioAssay AID493014 (National Center for Advancing Translational Sciences (NCATS), 2011).
# About 170 (0.05%) of roughly 340,000 compounds were called active. The shares of active, inactive and inconclusive entries below differ from those in the screen. The call rests on the fitted dose curve; in most records, active means well fitted inhibition curve with a large enough effect in the signal ratio, with a control signal flat (not every such curve was filed as active); inconclusive means small, poorly fitted or top-dose-only effect, or effect the other way, or a change in a side signal; inactive means flat fitted curve, though single readings scatter; the % refers to the signal ratio. Potencies of inconclusive entries are doubtful fits and often do not repeat.
# Experiment: qHTS Assay to Find Inhibitors of Chronic Active B-Cell Receptor Signaling;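 on activity change, negative = inhibition: plate controls were basal doxycycline-induced cells for no effect and cells given 10 µM MG132 for full effect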
# Settings: ABC-DLBCL IkBa-CBG/CBR reporter, luminescence ratio (green luciferase fused to IkBa over red control in TMD8 lymphoma cells), 4 h; activity change, negative = inhibition: at 46.1 µM (top of the series)
# Outline: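 Compounds up to 46 uM were incubated four hours with TMD8 cells whose green CBG68 luciferase is fused to IkappaBalpha; red CBR luminescence normalised the signal, and concentration-effect curves were fitted to fusion, red and ratio data.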
# Potency means the concentration at half of the fitted maximal effect.
Compound,Potency,"activity change, negative = inhibition"
CN(C(=O)/C(N=Nc1cccc(C(F)(F)F)c1)=C(\O)C(F)(F)F)c1ccccc1,"inconclusive: 29.1 µM [falling, single point]",–
COc1cc2c(c(OC)c1OC)-c1ccc(OC)c(=O)cc1[C@@H](NC(C)=O)CC2,–,inconclusive: -13.7%
CC1(C)CC2(CC(c3ccccc3)Oc3cc(O)ccc32)NC(=O)N1 (stereo not given),–,inactive: -1.03%
CN(C)c1c2ccccc2nc2c(F)c(F)c(F)c(F)c12,–,inactive: 0.541%
O=C(Nc1cccc(-c2cc3ccccc3oc2=O)c1)c1ccc(Br)o1,"inconclusive: 4.11 µM [falling, single point]",–
O=C(Nc1ccc(N2CCCCC2)cc1)c1ccccc1,"inconclusive: 5.17 µM [falling, partial curve]",–
Cc1ccc(OCCn2cc(C(=S)N3CCCC3)c3ccccc32)cc1C,–,inactive: 9.61%
COc1ccc(OCC(N)=O)cc1,–,inconclusive: 5.99%
COC(=O)c1ccc(SCc2cnc(Cl)s2)cc1,–,inconclusive: 5.87%
O=C(O)c1ccc(NC(=O)c2cn(-c3ccccc3)nc2-c2cccc(Cl)c2)cc1,–,inactive: -3.04%
CC(C)NC(=O)COC(=O)c1ccc(S(=O)(=O)N2CCCC2)cc1,–,inactive: -0.705%
CCN(CC)S(=O)(=O)c1ccc(N2CCOCC2)c(NC(=O)c2cccc(C#N)c2)c1,–,inconclusive: -0.804%
COc1ccc(OC)c(CN2CCCC(C(=O)c3ccccc3SC)C2)c1 (stereo not given),–,inactive: -1.01%
O=C(CNC(=O)c1ccc(Cl)cc1Cl)OCc1cn2cc(Br)ccc2n1,–,inactive: -1.41%
Cc1nn(C)c(C)c1S(=O)(=O)N1CCCC(C(=O)N2CCN(c3ccc(Cl)cc3)CC2)C1 (stereo not given),–,inconclusive: -18.8%
O=C(O)c1cc(Cl)c2c(c1)OCO2,–,inactive: 0.669%
COc1ccc(NC(=O)/C(C#N)=C/C=C/c2ccco2)cc1,–,inconclusive: -2.17%
CC1CCN(c2ccccc2NC(=S)NC(=O)c2cccs2)CC1,–,inconclusive: 22%
CC(C)(C)NC(=S)N/N=C/c1cccnc1,–,inconclusive: -11%
C/C(=N\OC(=O)NC(C)C)c1sc(-c2ccc(Cl)cc2)nc1C,–,inconclusive: 17.6%
Cc1ccc(CC(=O)Nc2ccc(Cl)cn2)cc1,–,inconclusive: 3.03%
O=C(CN1CCCCC1)Nc1nc(-c2ccc(Cl)cc2)cs1,–,inactive: -4.15%

# Look-ups from the results shown:
# COc1ccc(OC)c(CN2CCCC(C(=O)c3ccccc3SC)C2)c1 (stereo not given) – activity change, negative = inhibition: inactive: -1.01%
# COc1cc2c(c(OC)c1OC)-c1ccc(OC)c(=O)cc1[C@@H](NC(C)=O)CC2 – activity change, negative = inhibition: inconclusive: -13.7%
# O=C(CN1CCCCC1)Nc1nc(-c2ccc(Cl)cc2)cs1 – activity change, negative = inhibition: inactive: -4.15%

# Following part:

Compound,Potency,"activity change, negative = inhibition"
C[C@H](CO)N1C[C@H](C)[C@H](CN(C)Cc2ccccc2)Oc2c(NC(=O)Nc3ccc(F)cc3)cccc2C1=O,–,inconclusive: 0.705%
O=C(CSc1ccccn1)NCc1ccc2c(c1)OCO2,–,inconclusive: 1.36%
Cc1ccc(OCCSc2ncccn2)c(C)c1,–,inconclusive: 2.34%
O=[N+]([O-])c1cccc2ccc(N3CCOCC3)nc12,–,inconclusive: -2.46%
O=C(Nc1ccc([N+](=O)[O-])cc1)Nc1ccon1,"inconclusive: 10 µM [falling, partial curve]",–
CC(C)(C)[C@H](NC(=O)c1ccc(N)c(Cl)c1)C(=O)N1CCC[C@H]1C(=O)N[C@H](C#N)Cc1nn[nH]n1,–,inactive: -11.5%
COc1ccc(NC(=O)c2cc(-c3ccc(C)cc3O)n[nH]2)c(OC)c1,"inconclusive: 22.4 µM [falling, partial curve]",–
O=Nc1c(-c2cccc([N+](=O)[O-])c2)nc2ncccn12,–,inconclusive: -18.7%
COc1ccccc1/C=C/C=N\N1CCN(Cc2ccccc2Cl)CC1,–,inconclusive: -12.3%
Cc1cc(C)cc(NC(=S)NC2CC3CCC(C2)N3Cc2ccco2)c1 (stereo not given),"inconclusive: 3.55 µM [falling, single point]",–
c1nc2sc3c(c2c2nnnn12)CCCC3,–,inconclusive: 18.6%
Cc1cc(N(C)C(=O)c2ccc3c(c2)S(=O)(=O)c2cc(Cl)ccc2C3=O)c(C(F)(F)F)o1,–,inactive: 0.642%
COc1ccc(OCCCSc2ncccn2)cc1,"inconclusive: 2.91 µM [rising, partial curve, poor fit]",–
CCCCCC(=O)N(O)C1CC(=O)N(c2ccccc2)C1=O (stereo not given),–,inconclusive: -19.3%
O=C(Nc1cccc([N+](=O)[O-])c1)Nn1cnnc1,–,inconclusive: 8.86%
CC(C)c1ccc(OCC(=O)NCc2n[nH]c(=O)c3ccccc23)cc1,–,inactive: -1.28%
O=C(N/N=C/c1cccnc1)c1sc2ccccc2c1Cl,–,inconclusive: -0.2%
COc1ccccc1-c1oc2ccccc2c1C#CC1(O)CCCCC1,–,inconclusive: 0.0347%
Nc1nc(NCc2ccco2)nc(N2CCCCC2)c1[N+](=O)[O-],–,inactive: -4.85%
Cc1cc(-c2ccc(Cl)cc2)c(C#N)c(N)n1,–,inactive: -1.24%
COc1cccc(NC(=O)CN2C(=O)NC(C)(c3ccc(C)cc3)C2=O)c1 (stereo not given),–,inconclusive: -23.5%
COc1ccc(-c2csc(NC(=S)NC(=O)c3ccccc3)n2)cc1Br,–,inactive: 0.408%

Compound,Potency,"activity change, negative = inhibition"
CC(C)(C)NC(=O)Cn1nc(C(F)(F)F)c2c1CCCC2,–,inconclusive: 7.23%
CNC(=S)NNC(=O)Cc1ccc(O)cc1,–,inactive: 2.56%
CN(c1ccccc1)S(=O)(=O)c1ccc(Cl)c(C(=O)NCC(c2ccco2)N2CCCC2)c1 (stereo not given),–,inactive: 6.83%
O=C1c2ccccc2C(=O)C2OC12 (stereo not given),–,inconclusive: -0.29%
Cc1cccc(Nc2cc(=O)[nH]c(=O)[nH]2)c1,–,inconclusive: 1.04%
Cc1cc(=O)[nH]c(N/N=C/c2c(F)c(F)c(F)c(F)c2F)n1,"inconclusive: 3.55 µM [falling, partial curve, poor fit]",–
Cc1ccc(S(=O)c2snnc2C)cc1 (stereo not given),–,inconclusive: 1.49%
OCCCc1nc2ccccc2n1CCOc1ccccc1,"inconclusive: 17.8 µM [falling, partial curve]",–
Cn1nnnc1SCCNCc1ccc(F)cc1,–,inconclusive: 17.7%
Cc1ccc(C)c(-n2cc(CNCCc3cnccn3)c(-c3ccccc3)n2)c1,–,inconclusive: -10.8%
COc1cccc(C(=O)N(C)c2nnc(-c3ccncc3)s2)c1,–,inconclusive: -13.4%
Cc1cccc(-c2nc(CS(=O)CC(=O)NCc3cccs3)c(C)o2)c1 (stereo not given),–,inconclusive: -0.368%
O=C(CCN1CCOCC1)NC1CCCN(Cc2ccccc2F)C1 (stereo not given),–,inactive: -0.292%
CC(C)C(=O)Nc1cccc(-c2nc3ccccc3c(=O)o2)c1,"inconclusive: 20.6 µM [falling, single point]",–
O=C(O)c1ccc(N/N=C/c2cccc3cccnc23)cc1,–,inconclusive: 267%
CNc1nc(N)c([N+](=O)[O-])c(Nc2ccccc2OC)n1,–,inactive: -0.463%
CCOC(=O)c1c(C)[nH]c(C(=O)N/N=C/c2cc([N+](=O)[O-])ccc2O)c1C,–,inconclusive: -0.709%
COc1ccc(-c2cc3cc(-c4cc(OC)c(OC)c(OC)c4)ccc3o2)cc1,–,inconclusive: 0.829%
Cc1ccc(NC(=S)N2CCC(N(C)CC3CCCO3)CC2)cc1C (stereo not given),–,inconclusive: 5.71%
CC(C)(C)SCCNC(=O)CN(c1ccccc1)S(=O)(=O)c1ccccc1,–,inactive: -0.491%
Cc1nc(-c2ccccc2)sc1C(=O)CSc1ccc(F)cc1,"inconclusive: 1.3 µM [rising, full curve]",–
O=C(O)CCSc1nc2ccc(Br)cc2[nH]1,–,inconclusive: 16.3%

Compound,Potency,"activity change, negative = inhibition"
N#CCCN1CCN(C(=S)c2ccc(-c3cc(Cl)ccc3Cl)o2)CC1,–,inconclusive: -10.6%
COc1ccc(NC(=O)CN(C)C(=O)c2cccc(Oc3ccccc3)c2)cc1,–,inconclusive: -9.6%
O=C1/C(=C/c2cccc(F)c2)Oc2cc(O)ccc21,"inconclusive: 3.98 µM [activator, partial curve, poor fit]",–
COc1nc(-c2ccccc2)ncc1S(=O)(=O)c1ccccc1,–,inconclusive: 0.956%
O=C(Nc1ccc(N2CCOCC2)cc1)c1cccc(S(=O)(=O)N2CCCCC2)c1,–,inactive: 0.106%
Cn1cccc1C(=O)OCc1csc(-c2ccccc2)n1,–,inconclusive: 310%
Cc1cccn2c(=O)nc(SCC(=O)Nc3ccc4c(c3)OCCO4)nc12,"inconclusive: 3.66 µM [falling, partial curve, poor fit]",–
CC(C)Cc1cc(C(=O)NCCc2ccccc2)no1,"inconclusive: 18.4 µM [falling, partial curve]",–
COc1ccc(NC(=O)c2cc3c(CO)cnc(C)c3oc2=Nc2cccc(C)c2)c(OC)c1,–,inconclusive: -0.998%
O=C(CN1C(=O)c2cccnc2Oc2ccc(Cl)cc21)NC1CCCC1,–,inconclusive: 5.38%
O=C(Nc1cccc(F)c1)Nc1ccc2c(c1)C(=O)OC2,–,inconclusive: 4.68%
CCCCn1c(NS(=O)(=O)c2ccc(C)cc2)c(S(=O)(=O)c2ccccc2)c2nc3ccccc3nc21,"inconclusive: 2.91 µM [falling, full curve]",–
COc1ccccc1/C=C1\SC(=S)N(N2C(=O)CCCC2=O)C1=O,"inconclusive: 22.4 µM [falling, single point]",–
Cc1ccc(-n2nc3c(c2NC(=O)CC(C)C)CS(=O)C3)cc1 (stereo not given),–,inactive: 1.32%
O=[N+]([O-])c1cc(O)c2ncccc2c1,"inconclusive: 1.26 µM [falling, full curve, poor fit]",–
COc1ccc(C2Nc3ccccc3C(=O)N2Cc2ccco2)cc1CN1C(=O)c2ccccc2C1=O (stereo not given),–,inconclusive: -7.92%
CC(=O)Nc1ccc(/C=N/Nc2nc3ccccc3[nH]2)cc1,"inconclusive: 29.1 µM [falling, single point]",–
Cc1ccc(NC(=O)c2cnc(SCC(=O)N3CCOCC3)n(C)c2=O)cc1,"inconclusive: 20 µM [falling, partial curve]",–
COC(=O)COc1cccc(NC(=O)c2ccc(Cl)cc2)c1,"inconclusive: 22.4 µM [falling, single point]",–
